{"source": "PubChem BioAssay AID504808 (Drosophila RNAi Screening Center, 2011)", "screen": "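Genes whose loss lifts activity of an E2F-responsive reporter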 (primary screen)", "system": "Drosophila S2 cells", "reagent": "long dsRNA against Drosophila genes", "measured": "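Dual luciferase plate measurements; E2F-specific signal taken as firefly over Renilla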", "direction": "E2F firefly: higher = more E2F reporter activity; Renilla normaliser: higher = more normaliser reporter signal", "hit rule": "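Called active if the normalised E2F reporter went up by over 50%; the cutoff is arbitrary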", "note": "In all, the deposit lists about 21,000 reagents; below is an unselected part of those that have a named target and a result. Over the whole deposit, 18 (0.084%) are marked active. 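Raw counts without plate normalisation, one of two replicates; the ratio scores behind the calls were not deposited.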 Entries without a mark were called inactive. A plus sign joins genes that one reagent is predicted to hit. Not stated in the record: the amount of reagent, the time to read-out."}
{"predicted target":"CG33288","dsRNA":"DRSC11484","E2F firefly, rep 1":87004,"Renilla normaliser, rep 1":3932}
{"predicted target":"nerfin-2 (nervous fingers 2)","dsRNA":"DRSC14547","E2F firefly, rep 1":1.41e5,"Renilla normaliser, rep 1":5783}
{"predicted target":"CG3117","dsRNA":"DRSC00568","E2F firefly, rep 1":1.60e5,"Renilla normaliser, rep 1":5998}
{"predicted target":"CG12099","dsRNA":"DRSC08253","E2F firefly, rep 1":1.03e5,"Renilla normaliser, rep 1":4971}
{"predicted target":"TfIIEalpha (Transcription factor IIEalpha)","dsRNA":"DRSC11303","E2F firefly, rep 1":76043,"Renilla normaliser, rep 1":3105}
{"predicted target":"tau","dsRNA":"DRSC14569","E2F firefly, rep 1":1.02e5,"Renilla normaliser, rep 1":4863}
{"predicted target":"PMCA (plasma membrane calcium ATPase)","dsRNA":"DRSC17113","E2F firefly, rep 1":87563,"Renilla normaliser, rep 1":2296}
{"predicted target":"PMCA (plasma membrane calcium ATPase)","dsRNA":"DRSC17114","E2F firefly, rep 1":86537,"Renilla normaliser, rep 1":2854}
{"predicted target":"PMCA (plasma membrane calcium ATPase)","dsRNA":"DRSC17154","E2F firefly, rep 1":1748,"Renilla normaliser, rep 1":960}
{"predicted target":"Hr3 (Hormone receptor 3)","dsRNA":"DRSC06118","E2F firefly, rep 1":1.21e5,"Renilla normaliser, rep 1":4369}
{"predicted target":"Hr3 (Hormone receptor 3)","dsRNA":"DRSC07441","E2F firefly, rep 1":2737,"Renilla normaliser, rep 1":186}
{"predicted target":"wit (wishful thinking)","dsRNA":"DRSC08741","E2F firefly, rep 1":76162,"Renilla normaliser, rep 1":3955}
{"predicted target":"CG15708","dsRNA":"DRSC06579","E2F firefly, rep 1":1.35e5,"Renilla normaliser, rep 1":5147}
{"predicted target":"Rab9","dsRNA":"DRSC03281","E2F firefly, rep 1":1.03e5,"Renilla normaliser, rep 1":4443}
{"predicted target":"Pomp","dsRNA":"DRSC03201","E2F firefly, rep 1":67068,"Renilla normaliser, rep 1":3756}
{"predicted target":"Prim2 (DNA primase subunit 2)","dsRNA":"DRSC11610","E2F firefly, rep 1":67704,"Renilla normaliser, rep 1":3252}
{"predicted target":"TwdlO (TweedleO)","dsRNA":"DRSC16043","E2F firefly, rep 1":1.13e5,"Renilla normaliser, rep 1":8253}
{"predicted target":"Dscam1 (Down syndrome cell adhesion molecule 1)","dsRNA":"DRSC05047","E2F firefly, rep 1":1.34e5,"Renilla normaliser, rep 1":6175}
{"predicted target":"Dscam1 (Down syndrome cell adhesion molecule 1)","dsRNA":"DRSC05048","E2F firefly, rep 1":1.44e5,"Renilla normaliser, rep 1":6237}
{"predicted target":"Dscam1 (Down syndrome cell adhesion molecule 1)","dsRNA":"DRSC07407","E2F firefly, rep 1":1.23e5,"Renilla normaliser, rep 1":4691}
{"predicted target":"CG10654","dsRNA":"DRSC09767","E2F firefly, rep 1":1.13e5,"Renilla normaliser, rep 1":4403}
{"predicted target":"Trmt112 (tRNA methyltransferase subunit 11-2)","dsRNA":"DRSC11685","E2F firefly, rep 1":1.21e5,"Renilla normaliser, rep 1":6626}
{"predicted target":"Arl1 (ADP ribosylation factor-like 1)","dsRNA":"DRSC09667","E2F firefly, rep 1":1.57e5,"Renilla normaliser, rep 1":7549}
{"predicted target":"CG9902","dsRNA":"DRSC20212","E2F firefly, rep 1":2.19e5,"Renilla normaliser, rep 1":9405}
{"predicted target":"veli","dsRNA":"DRSC16276","E2F firefly, rep 1":91416,"Renilla normaliser, rep 1":4909}
{"predicted target":"CG6980","dsRNA":"DRSC16162","E2F firefly, rep 1":71966,"Renilla normaliser, rep 1":3394}
{"predicted target":"CG42827 + CG42828","dsRNA":"DRSC16116","E2F firefly, rep 1":95424,"Renilla normaliser, rep 1":5005}
{"predicted target":"RpS3 (Ribosomal protein S3)","dsRNA":"DRSC16838","E2F firefly, rep 1":43609,"Renilla normaliser, rep 1":6140}

As entered above:
Result for CG42827 + CG42828 [DRSC16116] in “Renilla normaliser, rep 1”: 5005
For “Renilla normaliser, rep 1”, TfIIEalpha (Transcription factor IIEalpha) [DRSC11303] has 3105
Arl1 (ADP ribosylation factor-like 1) [DRSC09667], Renilla normaliser, rep 1 = 7549
PMCA (plasma membrane calcium ATPase) [DRSC17154], E2F firefly, rep 1 → 1748
Entry of CG6980 [DRSC16162] in “Renilla normaliser, rep 1”: 3394
